Publication PMC2492875
These are yes or no findings as the source states them, for the method shown. Binding seen in cells or lysates may run through a third protein. Some entries that bind do so weakly or less than the wild type.

Chains of the proteins cited; added tags and fusions are not shown. Lines headed by an entry give the natural chain unless they say otherwise; changes in a name come on top. A line that says so, or that is headed by a name, gives the form on record, which may keep a tag or linker.
Myc-CycT1-U7 (mutant of the C-terminal truncation CycT1(1–280) of human cyclin T1) (O60563, form named): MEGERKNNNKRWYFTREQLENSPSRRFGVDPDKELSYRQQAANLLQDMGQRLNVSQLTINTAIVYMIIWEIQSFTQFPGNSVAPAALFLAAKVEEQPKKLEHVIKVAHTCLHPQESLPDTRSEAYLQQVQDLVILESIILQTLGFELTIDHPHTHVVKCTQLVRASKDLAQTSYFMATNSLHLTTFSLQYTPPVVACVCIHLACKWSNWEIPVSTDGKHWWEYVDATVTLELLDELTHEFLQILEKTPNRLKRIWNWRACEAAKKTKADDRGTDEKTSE
UniProt P04608: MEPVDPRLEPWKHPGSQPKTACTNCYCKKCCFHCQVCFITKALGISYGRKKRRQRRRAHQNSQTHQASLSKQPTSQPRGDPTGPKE

Biological target: Myc-CycT1-U7 (mutant of the C-terminal truncation CycT1(1–280) of human cyclin T1) (human) (UniProt O60563)
Assay: co-IP; HeLa cells stably expressing Myc-CycT1-U7, transfected with HA-Tat; Epoxomicin 50 μM before lysis (legend: 30 min; text: 60 min); IP with anti-Myc, Western blot with anti-HA; normal rabbit IgG as negative control

Substance: HA-tagged HIV-1 Tat (from UniProt P04608 1-86)
- binding: binds
